Test system: C57BL/6 mice
Test: rhPBEF challenge in limited ventilator-induced lung injury model (VILIa, 30 ml/kg)
Assay type: in vivo, mouse
Method: The first VILI model was designed to produce limited lung injury (VILIa, tidal volume 30 ml/kg), thus allowing assessment of potential synergy with rhPBEF challenge. Male C57BL/6J B6 mice were anesthetized with ketamine/acepromazine, intubated and administered rhPBEF (20 μg/mouse) via an intratracheal (IT) route ˜30 min before ventilator placement (room air, tidal volume 30 ml/kg, 65 breaths/minute, 0 cm H2O PEEP) for 4 hr as previously described (Nonas et al., 2007; Moitra et al., 2007). Groups included a spontaneous breathing group (SB), a spontaneous breathing group challenged with rhPBEF (SB-rhPBEF), a high tidal ventilation group (VILIa), and a high tidal ventilation group with rhPBEF challenge (VILIa-rhPBEF) (n=4-6 all groups).
BAL fluid recovered as we previously described was used for multiple assays including total BAL protein, and BAL cell differentials (Peng et al., 2004). Tissue albumin content was assessed as previously described (Nonas et al., 2007). Cytokine levels in BAL fluid (IL-1β, IL-6, KC, MIP2, TNF-α) were analyzed by multiplex assays (Bio-Rad, Hercules, Calif., USA). BAL PBEF levels were assayed by a C-terminal ELISA (Phoenix Pharmaceuticals Inc. Belmont, Calif.) and analyzed using the SoftmaxPRO software (Molecular Devices Corp). (See Supplemental Methods).
We utilized two experimental models of ventilator-induce lung injury in these experiments. Our first approach (VILIa) utilized a VILI protocol with a tidal volume of 30 ml/kg designed to produce limited lung injury in order to allow assessment of potential synergism between delivered PBEF and mechanical ventilation-induced lung injury. Male C57BL/6J mice (8-12 wk old, 24.7±2.0 g) were weighed, anesthetized with ketamine/acepromazine, intubated using a 20 gauge catheter (Medex, Inc, Carlsbad, Calif.) and administered recombinant PBEF (20 μg/mouse in 1.5 μl water per gram body weight or vehicle equal volumes of water) via an intratracheal (IT) route ˜30 min before being placed on mechanical ventilation as we have previously described (Peng et al., 2004). Mice were then connected to Harvard Apparatus ventilator (Boston, Mass.) at room air, tidal volume of 30 ml/kg, 65 breaths/minute, and positive expiratory pressure (PEEP) 0 cm H2O for 4 hr. […] Normal saline (0.2 cc) was given via intraperitoneal injection at the beginning and 2 hours later to all ventilated mice and peak inspiratory pressure was monitored continuously. […]
Mice underwent bronchioalveolar lavage (BAL) of both lungs with Hank's balanced salt solution (1 mL/mouse), and the recovered BAL fluid was used for assays as we have previously described (Peng et al., 2004). Total protein was measured using the Bio-Rad DC Protein Assay (Bio-Rad Laboratories, Hercules, Calif.) (Peng et al., 2004). Protein results were expressed as mg/ml to allow for comparison to other studies. […] The BAL cells were resuspended in Hank's balanced salt solution and counted using a hemacytometer using standard techniques.
Re-suspended BAL cells from lung lavage were centrifuged using a Shandon Cytospin-2 at 600 RPM for 15 min, fixed by air-drying, and stained with Diff-Quik dye for differential counts (Peng et al., 2004). Stained cell slides were evaluated and differentially counted for each individual animal (lymphocyte, neutrophil or a macrophage). […]

[1] = after 4 hours of mechanical ventilation

## rhPBEF: Recombinant human soluble PBEF/visfatin, a 52 kDa protein containing 465 amino acid residues, purchased from PeproTech
0 hrs
  PIP (peak inspiratory pressure): 0 hrs: 22.0 ± 1.8 mmHg
4 hrs
  PIP (peak inspiratory pressure): 4 hrs: 23.4 ± 1.6 mmHg
[1]
  PCO2: 28.6 ± 3.5 mmHg
  PO2: 97.8 ± 7.5 mmHg
  pH: 7.38 ± 0.07

— patent US9409983B2, “Methods and compositions involving PBEF inhibitors for lung inflammation conditions and diseases” (The Board of Trustess of the University of Illinois, priority 2009, dated 2016)
